Results on one substance are retold here after PMC3338841.

Sequences of proteins named here, by UniProt entry; tags and fusion partners are left off.
UniProt P57790: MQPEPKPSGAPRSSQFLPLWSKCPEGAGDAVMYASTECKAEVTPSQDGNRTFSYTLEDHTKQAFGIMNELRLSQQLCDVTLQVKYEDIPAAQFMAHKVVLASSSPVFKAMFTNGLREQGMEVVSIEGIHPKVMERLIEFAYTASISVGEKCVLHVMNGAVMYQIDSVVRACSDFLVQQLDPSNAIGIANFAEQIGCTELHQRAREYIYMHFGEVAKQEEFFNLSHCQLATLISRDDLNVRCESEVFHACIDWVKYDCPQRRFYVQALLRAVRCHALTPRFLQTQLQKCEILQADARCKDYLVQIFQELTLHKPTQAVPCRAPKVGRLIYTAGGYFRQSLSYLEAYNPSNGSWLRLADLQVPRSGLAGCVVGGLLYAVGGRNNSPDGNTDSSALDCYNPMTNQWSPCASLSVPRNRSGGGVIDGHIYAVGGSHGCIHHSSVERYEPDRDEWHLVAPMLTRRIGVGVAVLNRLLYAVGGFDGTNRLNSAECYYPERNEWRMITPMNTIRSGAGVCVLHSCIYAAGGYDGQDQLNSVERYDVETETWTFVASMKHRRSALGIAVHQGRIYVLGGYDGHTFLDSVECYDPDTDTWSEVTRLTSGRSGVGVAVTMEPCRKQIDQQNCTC
UniProt B5DF89: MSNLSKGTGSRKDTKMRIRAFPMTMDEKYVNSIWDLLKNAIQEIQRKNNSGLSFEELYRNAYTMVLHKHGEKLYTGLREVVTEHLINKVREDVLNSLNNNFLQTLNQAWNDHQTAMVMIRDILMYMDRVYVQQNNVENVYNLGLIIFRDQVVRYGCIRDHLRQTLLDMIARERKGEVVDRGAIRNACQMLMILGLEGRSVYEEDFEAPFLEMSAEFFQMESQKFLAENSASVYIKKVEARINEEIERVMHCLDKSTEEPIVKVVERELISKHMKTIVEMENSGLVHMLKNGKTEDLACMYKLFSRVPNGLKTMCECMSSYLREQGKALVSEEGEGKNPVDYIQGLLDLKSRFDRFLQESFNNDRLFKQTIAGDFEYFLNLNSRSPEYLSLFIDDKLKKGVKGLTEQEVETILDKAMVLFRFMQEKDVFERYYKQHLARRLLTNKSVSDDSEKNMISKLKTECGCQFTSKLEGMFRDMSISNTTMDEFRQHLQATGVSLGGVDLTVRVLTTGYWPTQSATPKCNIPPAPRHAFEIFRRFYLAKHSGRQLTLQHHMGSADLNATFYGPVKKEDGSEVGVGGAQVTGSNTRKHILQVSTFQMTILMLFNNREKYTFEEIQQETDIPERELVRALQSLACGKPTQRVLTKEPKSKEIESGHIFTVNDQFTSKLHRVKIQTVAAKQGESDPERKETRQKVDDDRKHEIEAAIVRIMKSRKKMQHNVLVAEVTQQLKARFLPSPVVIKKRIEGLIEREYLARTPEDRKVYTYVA

No constants are given. Whether binding was seen depends on the method and setting. Binding seen in cells or lysates may run through a third protein. Some entries that bind do so weakly or less than the wild type.

For this experiment, the target named is Kelch-like ECH-associated protein 1 (Keap1), endogenous in NBT-II cells (rat (endogenous in NBT-II)) (UniProt P57790). As to the kind of experiment: co-IP; IP with anti-Keap1 from cytosols and nuclear extracts of RT-4 and NBT-II cells treated with vehicle, CPDT (50 µM) or SF (8 µM) for 6 h; protein A or G sepharose; IB of Keap1, Nrf2, Cul3 and Rbx1; endogenous proteins.

For “Cul3, endogenous in NBT-II cells (from UniProt B5DF89 1-768)”, the binding result is on record as “binds”.
